In PubChem BioAssay AID330 (DTP/NCI, 2004):
The list does not hold the whole screen: it gathers tests that were run many times, whatever their T/C, doses with no T/C, and many T/C values between a quarter and a half above the control. Other doses and runs of a compound stand elsewhere. T/C: endpoint of the treated group in % of that of the vehicle group. Some entries give survivors of the animals treated and no T/C: the source files T/C as zero there, which appears to mark a toxic dose or a test without result, not a measured value. Some doses without a T/C left all or most animals alive at the check, yet need not have been tolerated: survival well below the control is almost never listed, so the zero probably covers shortened survival too. Survivors were counted at the toxicity check, usually on the fifth day, unless a day is given; later deaths do not show. Schedule codes are those of the source, read here as Q, the interval in days (D) or hours (H), X, the number of doses. For survival time, the PubChem record calls one and a half times the control and up active, and a quarter to a half above the control has no call in these data; cut-offs in other NCI protocols can differ. Some T/C values carry the count of animals alive at the toxicity check (mostly the fifth day); without a count, all were alive then.

Tested on: P388 leukemia ip, CD2F1 mice, survival T/C
Experiment: NCI In Vivo Anticancer Drug Screen. Data for tumor model P388 Leukemia (intraperitoneal) in CD2F1 (CDF1) mice
Conditions: T/C endpoint: median survival time, higher T/C = longer survival
[1] = dose: 100.0 mg/kg/injection, schedule: Q01DX009 (ip), vehicle: saline
[2] = dose: 200.0 mg/kg/injection, schedule: Q01DX009 (ip), vehicle: saline
[3] = dose: 120.0 mg/kg/injection, schedule: Q01DX005 (ip), vehicle: saline with Tween-80
[4] = dose: 240.0 mg/kg/injection, schedule: Q01DX005 (ip), vehicle: saline with Tween-80
[5] = dose: 200.0 mg/kg/injection, schedule: Q01DX009 (ip), vehicle: Klucel (hydroxypropylcellulose) (HPC)
[6] = dose: 50.0 mg/kg/injection, schedule: Q01DX009 (ip), vehicle: saline with Tween-80
[7] = dose: 100.0 mg/kg/injection, schedule: Q01DX009 (ip), vehicle: saline with Tween-80
[8] = dose: 200.0 mg/kg/injection, schedule: Q01DX009 (ip), vehicle: saline with Tween-80
[9] = dose: 240.0 mg/kg/injection, schedule: Q01DX005 (ip), vehicle: saline
[10] = dose: 12.5 mg/kg/injection, schedule: Q01DX009 (ip), vehicle: saline
[11] = dose: 25.0 mg/kg/injection, schedule: Q01DX009 (ip), vehicle: saline
[12] = dose: 200.0 mg/kg/injection, schedule: Q04DX003 (ip), vehicle: saline
[13] = dose: 400.0 mg/kg/injection, schedule: Q01DX009 (ip), vehicle: saline
[14] = dose: 32.0 mg/kg/injection, schedule: Q01DX009 (ip), vehicle: water

For `CCC1(O)CC(OC2CC(N(C)C)C(OC3CC(O)C(O)C(C)O3)C(C)O2)c2c(cc3c(c2O)C(=O)c2c(O)ccc(O)c2C3=O)C1C(=O)OC` (stereo not given), the T/C (dose: 12.5 mg/kg/injection, schedule: Q04DX003 (ip), vehicle: Klucel (hydroxypropylcellulose) (HPC)) was 125 % of control and the T/C (dose: 25.0 mg/kg/injection, schedule: Q04DX003 (ip), vehicle: Klucel (hydroxypropylcellulose) (HPC)) was 129 % of control.

With `CC(C)[N+](C)(C)CC(O)COc1ccccc1-c1ccccc1` (stereo not given) the survivor count [1] was 0 of 6 and the survivor count [2] was 0 of 6.

`BrCc1ccc2ccc3ccc(CBr)nc3c2n1` was tested, and the survivor count (dose: 60.0 mg/kg/injection, schedule: Q01DX005 (ip), vehicle: saline with Tween-80) was 2 of 6, the survivor count [3] was 0 of 6 and the survivor count [4] was 0 of 6.

In the case of `COc1ccc2nc(NC(=O)Nc3ccc(C)c(NC(=O)Nc4nc5ccc(OC)cc5s4)c3)sc2c1`, the survivor count [5] is reported as 6 of 6.

For `COc1cc(C=O)c(C=O)cc1OC`, the survivor count (dose: 50.0 mg/kg/injection, schedule: Q04DX003 (ip), vehicle: saline with Tween-80) was 3 of 6 and the survivor count (dose: 100.0 mg/kg/injection, schedule: Q04DX003 (ip), vehicle: saline with Tween-80) was 0 of 6.

`CC1C/C(=C2/NC3CCCCC3NC2=O)C(=O)O1` (stereo not given) was tested, and the survivor count [6] was 3 of 6, the survivor count [7] was 2 of 6 and the survivor count [8] was 0 of 6.

For `Cc1c(Cl)cccc1NC(=O)c1cccc([N+](=O)[O-])c1O`, the survivor count [8] was 3 of 6.

`Nc1nc(-c2cc(-c3cccs3)nc(N)n2)cc(-c2cccs2)n1` was tested, and the survivor count [9] was 3 of 6.

In the case of `Cc1ccc(SNc2ccccc2)cc1`, the survivor count (dose: 200.0 mg/kg/injection, schedule: Q04DX003 (ip), vehicle: saline with Tween-80) is reported as 5 of 6.

`CCCC(=O)N(C)O` was tested, and the T/C (dose: 400.0 mg/kg/injection, schedule: Q01DX005 (ip), vehicle: saline with Tween-80) was 146 % of control.

For `C=C1C(=O)C(CCCC)=C(CCC)C1O` (stereo not given), the survivor count [4] was 0 of 6.

With `O=C1Cc2ccccc2C(O)=C1c1cnccn1` the survivor count [3] was 3 of 6 and the survivor count [4] was 0 of 6.

For `CC(C)(C)C1=CC2(c3ccccn3)C(Cl)C(=O)N2NC(c2ccccn2)=N1` (stereo not given), the survivor count (dose: 400.0 mg/kg/injection, schedule: Q01DX009 (ip), vehicle: other) was 3 of 6.

In the case of `CC(=O)OCC1OC(n2cc(CBr)nn2)C(OC(C)=O)C(OC(C)=O)C1OC(C)=O` (stereo not given), the T/C [10] is reported as 131 % of control, the T/C [11] is reported as 149 % of control and the survivor count (dose: 50.0 mg/kg/injection, schedule: Q01DX009 (ip), vehicle: distilled water + Tween-80) is reported as 5 of 6. The T/C [6] was 127 % of control, the survivor count (dose: 100.0 mg/kg/injection, schedule: Q01DX009 (ip), vehicle: distilled water + Tween-80) was 0 of 6 and the survivor count [7] was 2 of 6. For the same compound, the survivor count [8] was 1 of 6, the survivor count [12] was 4 of 6 and the survivor count (dose: 300.0 mg/kg/injection, schedule: Q04DX003 (ip), vehicle: saline) was 4 of 6.

With `CCCCCCCCCCCCCCCCOc1ccc2c(c1OCCCCCCCCCCCCCCCC)OC(C)(C)C=C2C` the survivor count (dose: 400.0 mg/kg/injection, schedule: Q04DX002 (ip), vehicle: saline with Tween-80) was 6 of 6.

For `COC(=O)C(C#N)c1ccccn1` (stereo not given), the survivor count [8] was 4 of 6.

With `CC(=O)N(Cc1cnc2nc(N)[nH]c(=O)c2n1)c1ccc(C(=O)NC(CCC(=O)O)C(=O)O)cc1` (stereo not given) the survivor count [2] was 6 of 6 and the survivor count [13] was 0 of 6.

In the case of `CCOP(=O)(O)C1CCCC(C)[N-]1.CCOP(=O)(O)C1CCCC(C)[N-]1.CCOP(=O)(O)C1CCCC(C)[N-]1.[Fe+3]` (stereo not given), the survivor count (dose: 100.0 mg/kg/injection, schedule: Q04DX003 (ip), vehicle: saline) is reported as 5 of 6 and the survivor count [12] is reported as 6 of 6.

For `O=C(OCCN1CCN(CCOC(=O)C(Cl)(c2ccccc2)c2ccccc2)CC1)C(Cl)(c1ccccc1)c1ccccc1`, the survivor count (dose: 50.0 mg/kg/injection, schedule: Q01DX005 (ip), vehicle: saline with Tween-80) was 5 of 5 and the survivor count (dose: 200.0 mg/kg/injection, schedule: Q01DX005 (ip), vehicle: saline with Tween-80) was 5 of 5.

`COc1ccccc1C1=[N+]([O-])C(C)(C)C(c2ccccc2)C1` (stereo not given) was tested, and the survivor count (dose: 400.0 mg/kg/injection, schedule: Q04DX002 (ip), vehicle: Klucel (hydroxypropylcellulose) (HPC)) was 4 of 6.

With `CC(O)C1/C=C/C=C\C(=O)O[C@@H]2C[C@H]3OC4C5OC5(C)CCC4(COC(=O)C4O[C@@]4(C)CCO1)[C@]2(C)[C@]31CO1` (stereo not given in full) the T/C (dose: 5.0 mg/kg/injection, schedule: Q01DX009 (ip), vehicle: Klucel (hydroxypropylcellulose) (HPC)) was 128 % of control, the T/C (dose: 10.0 mg/kg/injection, schedule: Q01DX009 (ip), vehicle: Klucel (hydroxypropylcellulose) (HPC)) was 129 % of control and the T/C (dose: 20.0 mg/kg/injection, schedule: Q01DX009 (ip), vehicle: Klucel (hydroxypropylcellulose) (HPC)) was 126 % of control.

In the case of `CC1CC(C)N(C)C(C)C1` (stereo not given), the survivor count (dose: 60.0 mg/kg/injection, schedule: Q01DX005 (ip), vehicle: saline) is reported as 2 of 6, the survivor count (dose: 120.0 mg/kg/injection, schedule: Q01DX005 (ip), vehicle: saline) is reported as 0 of 6 and the survivor count [9] is reported as 0 of 6.

In the case of `O=c1c2ccccc2nc2ccc(Cl)nn12`, the survivor count [8] is reported as 5 of 6.

With `O=[N+]([O-])c1ccc(Sc2ccncn2)c([N+](=O)[O-])c1` the T/C (dose: 50.0 mg/kg/injection, schedule: Q01DX009 (ip), vehicle: saline) was 127 % of control, the T/C [1] was 125 % of control [5 of 6 alive] and the survivor count [2] was 0 of 6.

With `CCCCC/C(=C/C=C/c1ccc(Cl)cc1)CN(C)C` the survivor count [5] was 1 of 6.

In the case of `Nc1ccc(S(=O)(=O)c2cc(O)c3ccccc3c2O)cc1`, the survivor count (dose: 100.0 mg/kg/injection, schedule: Q01DX009 (ip), vehicle: Klucel (hydroxypropylcellulose) (HPC)) is reported as 0 of 6 and the survivor count [5] is reported as 0 of 6.

With `CN(C)c1ccc(C2=CC(c3ccc(N(C)C)cc3)(c3ccc(C(F)(F)F)cc3)C=C(c3ccc(N(C)C)cc3)S2)cc1` the survivor count (dose: 400.0 mg/kg/injection, schedule: Q01DX001 (ip), vehicle: Klucel (hydroxypropylcellulose) (HPC)) was 6 of 6.

For `CC(C)C1OC(=O)/C=C/C=C/C=C/C=C/C=C/CC(O)C(C)C(O)CC(O)CC(O)CC(O)CC(O)CC(O)CC(O)/C=C/C1C` (stereo not given), the survivor count [10] was 3 of 6 and the survivor count [11] was 0 of 6.

With `CC(=O)OC1CSC(OC(C)=O)C(OC(C)=O)C1[N+](=O)[O-]` (stereo not given) the survivor count (dose: 400.0 mg/kg/injection, schedule: Q04DX002 (ip), vehicle: saline) was 5 of 6.

`CN1CCN(CN2C(=O)C3C4C=CC(C3C2=O)C2C(=O)N(CN3CCN(C)CC3)C(=O)C42)CC1` (stereo not given) was tested, and the T/C [1] was 126 % of control, the T/C [2] was 128 % of control and the survivor count [13] was 3 of 6.

With `O=C(CCCN1CCC(C(=O)c2ccc(F)cc2)CC1)c1ccc(F)cc1` the survivor count [7] was 4 of 6 and the survivor count [8] was 0 of 6.

With `ClC1=C(Cl)C2(Cl)C3C4CC(C5OC45)C3N1C2(Cl)Cl` (stereo not given) the survivor count (dose: 400.0 mg/kg/injection, schedule: Q01DX001 (ip), vehicle: saline with Tween-80) was 0 of 6.

In the case of `CCOc1cc(/C=N\Nc2nncn2N)c(C)cc1N(CCCl)CCCl`, the survivor count (dose: 100.0 mg/kg/injection, schedule: Q04DX003 (ip), vehicle: saline sonified) is reported as 6 of 6 and the survivor count (dose: 200.0 mg/kg/injection, schedule: Q04DX003 (ip), vehicle: saline sonified) is reported as 2 of 6.

For `OCC1OC(n2cnc3c2NC=NC[C@H]3O)CC1O` (stereo not given in full), the survivor count (dose: 8.0 mg/kg/injection, schedule: Q01DX009 (ip), vehicle: water) was 6 of 6, the survivor count (dose: 16.0 mg/kg/injection, schedule: Q01DX009 (ip), vehicle: water) was 5 of 6 and the survivor count [14] was 4 of 6. For the same compound, the survivor count (dose: 64.0 mg/kg/injection, schedule: Q01DX009 (ip), vehicle: water) was 1 of 6.

`C#CCCCCCC#CCCCCCC#CC(=O)O` was tested, and the survivor count (dose: 400.0 mg/kg/injection, schedule: Q01DX001 (ip), vehicle: saline) was 1 of 6.

For `COc1cc2ccc3c4c(OC)c(OC)c(OC)cc4c[n+](C)c3c2cc1OC`, the survivor count [14] was 5 of 6.
